Source: US6846845B2, “Heat shock protein inducer” (Eisai Co., Ltd., priority 2002, dated 2005)

Test system: isolated perfused heart
Assay: Isolated perfused heart experiments (Langendorff, no-flow global ischemia/reperfusion), Example 1
Type: in vivo, rat
Description: As mentioned above, 24 hours after administration of 200 mg/kg of GGA or the vehicle, rats were heparinized (500 IU/kg, i.p.) and anesthetized with pentobarbital (50 mg/kg, i.p.).
Each heart was isolated and reperfused using the Langendorff method with Krebs-Henseleit buffer (pH 7.4, [in mM] 118 NaCl, 4.7 KCl, 2.5 CaCl2, 1.2 MgSO4, 1.2 KH2PO4, 25.0 Na2HCO3, 11.0 glucose) equilibrated with a 95% O2, 5% CO2 gas mixture at 36.5° C., 75 mmHg (1.0×10^4 Pa).
A water-filled latex balloon was inserted through the mitral orifice into the left ventricle, and the left ventricular end diastolic pressure (LVEDP) was adjusted to 0-5 mmHg (0-667 Pa). During the first 10 minutes of constant pressure reperfusion, the perfusion flow rate was determined for each heart, and the hearts were then perfused at a determined perfusion rate using a microtube pump, during which time each heart was covered with water-jacketed glassware and humidity was maintained at 90% or more.
Normothermic no-flow global ischemia was performed for 20, 40 and 60 minutes, followed by reperfusion for 30 minutes. […] The ratio of released CK to heart weight was analyzed by unpaired t-test.
The peak position and negative first derivaties of left ventricular pressure (dP/dt max and dP/dt min) were monitored using a pressure transducer. […]

In the case of `CC(=O)CCC=C(C)CCC=C(C)CCC=C(C)CCC=C(C)C` [GGA, 6, 10, 14, 18-tetramethyl-5,9, 13, 17-nonadecatetraen-2-one], the “CPP or heart rate during reperfusion versus Control Group” value (24 h after oral 200 mg/kg, no graph) is reported as “no great difference” and the “data at the baseline period versus Control Group (Table 1 parameters)” value (24 hours after oral 200 mg/kg, before ischemia) is reported as “no differences”.
